Assay results published in patent publication US20090304667A1 (POSTECH ACADEMY INDUSTRY, published 2009).
No constants are given. Whether binding was seen depends on the method and setting. Binding seen in cells or lysates may run through a third protein. Some results given as binding are weak or reduced against the parent protein; the word gives no strength.

Amino acid sequences for entries named in this document (tags omitted). Residues count along the entry.
HA-Rheb^wt (Q15382, residues 1-181): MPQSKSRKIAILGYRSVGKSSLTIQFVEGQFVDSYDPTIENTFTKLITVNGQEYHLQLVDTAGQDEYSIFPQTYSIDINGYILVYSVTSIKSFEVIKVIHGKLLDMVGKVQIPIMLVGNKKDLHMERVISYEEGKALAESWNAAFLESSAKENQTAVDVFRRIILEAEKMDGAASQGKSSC

Tests used:
HA-Rheb^wt (human) = HA-Rheb^wt (human) (UniProt Q15382); assay: GST pull-down of HA-Rheb^wt cell lysates with truncated GST-PLD2 fragments
PLD2^wt = target: T1, PLD2^wt (Homo sapiens, UniProt O14939 1-933); assay: GST pull-down with PLD2-expressing cell lysates
T1 construct: Ectopically expressed in COS7 or HEK293 cells from a mammalian expression vector; used as cell lysate; also called phospholipase D2

Row | Substance | binding (HA-Rheb^wt (human)) | binding (PLD2^wt)
1 | GST-2F3 (amino acids 476-612 of PLD2) (from UniProt O14939 476-612) | binds | –
2 | GST-Rheb (from UniProt Q15382 1-184) | – | binds
